Results from PMC7934504.
No constants are given. Whether binding was seen depends on the method and setting. In cells and extracts the contact can be indirect. These calls come from enrichment with a bait or labelling near it, and not all partners need be listed.

Molecular target: STAU2^52-TurboID-HA (human)
Test: proximity labelling; TurboID: hTERT-RPE1 cells stably expressing STAU2^52-TurboID-HA (control YFP-TurboID-HA), 50 uM biotin for 4 h in the presence or absence of the CHK1 inhibitor PF47, RIPA lysis, streptavidin-coated magnetic beads, LC-MS/MS; SAINT probability greater than 0.7, CRAPome

B1: SMEG2 (protein, UniProt Q02383 24-582)
chain: QKGGSKGQLPSGSSQFPHGQKGQHYFGQKDQQHTKSKGSFSIQHTYHVDINDHDWTRKSQQYDLNALHKATKSKQHLGGSQQLLNYKQEGRDHDKSKGHFHMIVIHHKGGQAHHGTQNPSQDQGNSPSGKGLSSQCSNTEKRLWVHGLSKEQASASGAQKGRTQGGSQSSYVLQTEELVVNKQQRETKNSHQNKGHYQNVVDVREEHSSKLQTSLHPAHQDRLQHGPKDIFTTQDELLVYNKNQHQTKNLSQDQEHGRKAHKISYPSSRTEERQLHHGEKSVQKDVSKGSISIQTEEKIHGKSQNQVTIHSQDQEHGHKENKISYQSSSTEERHLNCGEKGIQKGVSKGSISIQTEEQIHGKSQNQVRIPSQAQEYGHKENKISYQSSSTEERRLNSGEKDVQKGVSKGSISIQTEEKIHGKSQNQVTIPSQDQEHGHKENKMSYQSSSTEERRLNYGGKSTQKDVSQSSISFQIEKLVEGKSQIQTPNPNQDQWSGQNAKGKSGQSADSKQDLLSHEQKGRYKQESSESHNIVITEHEVAQDDHLTQQYNEDRNPIST
- binding: binds
